Here are results for two molecules from article PMC10279913.

Chains of the proteins cited; added tags and fusions are not shown. Residues count along the entry.
UniProt O60488, residues 42-711: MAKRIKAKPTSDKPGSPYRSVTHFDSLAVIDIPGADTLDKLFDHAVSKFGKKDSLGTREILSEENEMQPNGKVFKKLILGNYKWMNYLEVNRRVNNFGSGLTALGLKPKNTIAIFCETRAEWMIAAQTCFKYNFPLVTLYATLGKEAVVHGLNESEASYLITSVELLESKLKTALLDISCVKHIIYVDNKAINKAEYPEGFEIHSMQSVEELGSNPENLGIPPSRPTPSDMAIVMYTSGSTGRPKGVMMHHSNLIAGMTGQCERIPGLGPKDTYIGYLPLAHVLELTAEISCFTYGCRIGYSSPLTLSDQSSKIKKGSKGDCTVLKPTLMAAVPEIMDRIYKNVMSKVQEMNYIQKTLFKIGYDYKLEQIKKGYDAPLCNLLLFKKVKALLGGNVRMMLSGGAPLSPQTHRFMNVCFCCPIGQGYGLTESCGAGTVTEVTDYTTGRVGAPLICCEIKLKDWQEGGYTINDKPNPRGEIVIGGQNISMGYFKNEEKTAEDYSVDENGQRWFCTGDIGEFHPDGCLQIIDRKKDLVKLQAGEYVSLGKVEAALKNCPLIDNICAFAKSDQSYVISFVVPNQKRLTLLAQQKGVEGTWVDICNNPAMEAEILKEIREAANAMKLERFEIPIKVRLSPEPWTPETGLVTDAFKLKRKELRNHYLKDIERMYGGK

Like-named read-outs stand apart in the source and are kept apart here. No constants are given. Whether binding was seen depends on the method and setting. Binding seen in cells or lysates may run through a third protein. Some entries that bind do so weakly or less than the wild type. Tags and fused reporters may be left off the sequences shown.

Assay [1] has as its target T1, VN173-HA-hAdipoR2-cMYC (human) (UniProt Q86V24).
T1 sequence: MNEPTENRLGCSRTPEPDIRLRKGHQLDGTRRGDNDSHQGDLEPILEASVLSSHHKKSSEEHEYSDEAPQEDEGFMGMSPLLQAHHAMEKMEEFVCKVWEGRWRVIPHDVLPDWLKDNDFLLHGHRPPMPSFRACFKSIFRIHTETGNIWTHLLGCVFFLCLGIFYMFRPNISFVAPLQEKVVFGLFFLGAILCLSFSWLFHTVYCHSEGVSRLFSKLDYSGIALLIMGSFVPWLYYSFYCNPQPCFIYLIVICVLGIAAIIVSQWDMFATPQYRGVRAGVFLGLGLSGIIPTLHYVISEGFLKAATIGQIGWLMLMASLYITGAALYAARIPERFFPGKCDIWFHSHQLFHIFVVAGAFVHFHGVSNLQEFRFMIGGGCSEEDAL
As to the kind of experiment: split reporter; BiFC with Venus fragments VN173 and VC155 in transfected HEK293 cells; live imaging 24 h after transfection, 37 °C, 5% CO2.

The target in assay [2] is T1, VN173-HA-hAdipoR2-cMYC (human). Described as above. This is another data set of the same source.

As for “hACSL4_v1-FLAG-VC155 (from UniProt O60488-2 1-670) (enzyme)”, the binding entry in assay [1] was “binds”.

B1: FLAG-hHACD3-VC155 (enzyme, UniProt Q9P035 1-362)
chain: MENQVLTPHVYWAQRHRELYLRVELSDVQNPAISITENVLHFKAQGHGAKGDNVYEFHLEFLDLVKPEPVYKLTQRQVNITVQKKVSQWWERLTKQEKRPLFLAPDFDRWLDESDAEMELRAKEEERLNKLRLESEGSPETLTNLRKGYLFMYNLVQFLGFSWIFVNLTVRFCILGKESFYDTFHTVADMMYFCQMLAVVETINAAIGVTTSPVLPSLIQLLGRNFILFIIFGTMEEMQNKAVVFFVFYLWSAIEIFRYSFYMLTCIDMDWKVLTWLRYTLWIPLYPLGCLAEAVSVIQSIPIFNETGRFSFTLPYPVKIKVRFSFFLQIYLIMIFLGLYINFRHLYKQRRRRYGQKKKKIH
Take B1: the binding result in assay [2] is reported as “binds”.
